According to the supplement of paper PMC8166895:
Where a name gives a salt, the structure may show the parent alone. This is one part of the list. Most values lie at the level of the controls, where differences are scatter.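 A single-replicate pilot screen of approved drugs and clinical or known-target compounds measured melting temperature via differential scanning fluorimetry. Top stabilizing hits raised the melting point by 2 °C or more; negative shifts indicate destabilization.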

test system: SARS-CoV-2 main protease (Mpro, nsp5); test: thermal shift ΔTm of Mpro relative to plate average Tm; higher = stronger thermal stabilization of Mpro (binding); conditions: 10 µM; protein concentration 1 µM

Structure (SMILES)	thermal shift ΔTm of Mpro
CNc1ncnc2c1ncn2[C@@H]1O[C@H](CO)[C@@H](O)[C@H]1O [N6-methyladenosine (m6A)]	0.0147 °C
Cc1ncc([N+](=O)[O-])n1C [Dimetridazole]	0.0281 °C
CC(C)OC(=O)C(C(=O)OC(C)C)=C1SC=CS1 [Malotilate]	-0.0375 °C
C[C@@H](O)[C@H]1C(=O)N2C(C(=O)O)=C(SCCNC=N)C[C@H]12 [Imipenem]	0.0316 °C
c1ccc2c(c1)CCCC2C1=NCCN1 (stereo unspecified) [Tetrahydrozoline HCl]	-0.0247 °C
c1ccc2c(c1)CCCC2C1=NCCN1 (stereo unspecified) [Tetryzoline]	-0.206 °C
CCOc1cc(N2CCC(O)CC2)ccc1Nc1ncc2c(n1)N(C1CCCC1)CCC(=O)N2C	0.104 °C
OC[C@@H](O)[C@@H](O)[C@H](O)[C@H](O)CO [D-Mannitol]	0.0318 °C
O=C1Nc2ccc(Cl)cc2/C1=C/c1cc(Br)c(O)c(Br)c1	0.265 °C
CN1C(=O)COc2c(C(=O)NC3CN4CCC3CC4)cc(Cl)cc21 (stereo unspecified) [Azasetron hydrochloride]	0.168 °C
CCn1cc(C(=O)O)c(=O)c2cc(F)c(N3CCNCC3)nc21 [Enoxacin]	0.0663 °C
CCn1cc(C(=O)O)c(=O)c2cc(F)c(N3CCNCC3)nc21 [Enoxacin Sesquihydrate]	0.0701 °C
CC(=O)OCC(=O)NCCCOc1cccc(CN2CCCCC2)c1 [Roxatidine Acetate HCl]	0.0133 °C
CCCCCCCCC(=O)N[C@H](CN1CCCC1)[C@H](O)c1ccc2c(c1)OCCO2	0.0372 °C
C[C@H](NCc1ccc(OCc2cccc(F)c2)cc1)C(N)=O [Safinamide Mesylate]	0.346 °C
O=C(Oc1ccc([N+](=O)[O-])cc1)N1CCC(C(O)(c2ccc3c(c2)OCO3)c2ccc3c(c2)OCO3)CC1	-0.0641 °C
O=C(OCC1=C[C@@H](O)[C@@H]2C=CO[C@@H](O[C@@H]3O[C@H](CO)[C@@H](O)[C@H](O)[C@H]3O)[C@H]12)c1ccc(O)cc1 [Agnuside]	0.107 °C
CONC(=O)c1ccccc1Nc1cc(Nc2cc(C)nn2C(C)C)ncc1Cl	0.143 °C
O=C(COc1c(Cl)cc(Cl)cc1Cl)N/N=C/c1ccc[nH]1	0.184 °C
O=C1NC(=O)C(c2ccccc2[N+](=O)[O-])=C1Nc1ccc(O)c(Cl)c1	-0.379 °C
CO/N=C(\C(=O)N[C@@H]1C(=O)N2C(C(=O)O)=CCS[C@H]12)c1csc(N)n1 [Ceftizoxime]	-0.0823 °C
N#CSCSc1nc2ccccc2s1 [Benthiazole]	-1.25 °C
OC[C@H]1OC(O)[C@H](O)[C@@H](O)[C@@H]1O (stereo partly specified) [Dextrose]	0.19 °C
CCCc1ncc(C[n+]2ccccc2C)c(N)n1 [Amprolium HCl]	-0.0231 °C
O=C1NC(=O)/C(=C/c2ccc3nccc(-c4ccncc4)c3c2)S1	0.394 °C
C/C(=C1/C(=O)Nc2ccc(NC(N)=O)cc21)c1ccc[nH]1	-0.0769 °C

Structure (SMILES)	thermal shift ΔTm of Mpro
N#C/C(=C\c1ccc(O)c(O)c1)C(=O)Nc1ccccc1	-0.345 °C
CC(C(=O)O)c1cccc(Oc2ccccc2)c1 (stereo unspecified) [Fenoprofen calcium dihydrate]	0.0531 °C
CC(C(=O)O)c1cccc(Oc2ccccc2)c1 (stereo unspecified) [Fenoprofen Calcium]	0.0378 °C
CC(C(=O)O)c1cccc(Oc2ccccc2)c1 (stereo unspecified) [Fenoprofen calcium hydrate]	-0.108 °C
O=C1OC(c2ccc(O)cc2)(c2ccc(O)cc2)c2ccccc21 [Phenolphthalein]	-0.07 °C
COCCOc1nc(-c2ccc(Cl)c(Cl)c2)n(-c2ccc(NC(=O)CCl)cc2)n1 [MI-2 (MALT1 inhibitor)]	-0.0947 °C
CNC[C@@H](O)c1ccc(O)c(O)c1 [L-Adrenaline]	-0.111 °C
Cc1ccc(N(CC2=NCCN2)c2cccc(O)c2)cc1 [Phentolamine Mesylate]	0.13 °C
CC(C)Nc1cc(-c2c[nH]c(C(=O)N[C@H](CO)c3cccc(Cl)c3)c2)c(Cl)cn1	0.189 °C
CCc1ccc(CCOc2ccc(CC3SC(=O)NC3=O)cc2)nc1 (stereo unspecified) [Pioglitazone]	-0.0492 °C
CCc1ccc(CCOc2ccc(CC3SC(=O)NC3=O)cc2)nc1 (stereo unspecified) [Pioglitazone HCl]	0.0188 °C
CCCSc1ccc2[nH]c(NC(=O)OC)nc2c1 [Albendazole]	0.0585 °C
Cc1c(Cl)cccc1Nc1ccccc1C(=O)O [Tolfenamic Acid]	0.136 °C
c1ccc(-c2nc(-c3ccc(-c4nc(-c5ccccc5)c(-c5ccccc5)[nH]4)cc3)[nH]c2-c2ccccc2)cc1	0.151 °C
CO[C@H]1/C=C/O[C@@]2(C)Oc3c(C)c(O)c4c(O)c(c(/C=N/N5CCN(C)CC5)c(O)c4c3C2=O)NC(=O)/C(C)=C\C=C\[C@H](C)[C@H](O)[C@@H](C)[C@@H](O)[C@@H](C)[C@H](OC(C)=O)[C@@H]1C [Rifampin]	0.00997 °C
COc1cc(F)c(C(C)C)cc1-c1ccc(C(F)(F)F)cc1CN1C(=O)O[C@H](c2cc(C(F)(F)F)cc(C(F)(F)F)c2)[C@@H]1C [Anacetrapib (MK-0859)]	-0.0129 °C
O=C(O)CCc1c(C(=O)O)[nH]c2cc(Cl)cc(Cl)c12	0.171 °C
CC[C@H]1OC(=O)[C@H](C)[C@@H](O[C@H]2C[C@@](C)(OC)[C@@H](O)[C@H](C)O2)[C@H](C)[C@@H](O[C@@H]2O[C@H](C)C[C@H](N(C)C)[C@H]2O)[C@](C)(O)C[C@@H](C)C(=O)[C@H](C)[C@@H](O)[C@]1(C)O [Erythromycin]	0.0354 °C
CC(C)(C)[C@]1(O)CC2OC(=O)CC23C(=O)OC2OC(=O)[C@H](O)C231 (stereo partly specified) [Bilobalide]	-0.0454 °C
CC(C)(Oc1ccc(CCNC(=O)c2ccc(Cl)cc2)cc1)C(=O)O [Bezafibrate]	-0.0145 °C
OCCN1CCN(CCCN2c3ccccc3Sc3ccc(C(F)(F)F)cc32)CC1 [Fluphenazine hydrochloride]	0.105 °C
c1ccc(CC2=NCCN2)cc1 [Tolazoline HCl]	-0.121 °C
Cc1cnc2c(C(=O)NCCO)cn(Cc3ncnc(N(C)C)c3C)c2c1	-0.0814 °C
O=C1c2ccccc2C(=O)C1c1ccccc1 [Phenindione]	0.0766 °C
O=C(O)CCCc1c[nH]c2ccccc12 [3-Indolebutyric acid (IBA)]	-0.0502 °C
O=C(c1cc(Cc2n[nH]c(=O)c3ccccc23)ccc1F)N1CCN(C(=O)C2CC2)CC1	0.0562 °C

Reformatted: entries from further up
Structure (SMILES) | thermal shift ΔTm of Mpro
CC(C(=O)O)c1cccc(Oc2ccccc2)c1 (stereo unspecified) [Fenoprofen calcium hydrate] | -0.108 °C
O=C1OC(c2ccc(O)cc2)(c2ccc(O)cc2)c2ccccc21 [Phenolphthalein] | -0.07 °C

(list continues)

Structure (SMILES)	thermal shift ΔTm of Mpro
Cc1cc(SCc2sc(-c3ccc(C(F)(F)F)c(F)c3)nc2C)ccc1OCC(=O)O	-0.359 °C
CNc1nc(-c2ccc3c(N)n[nH]c3c2)cc(N2C[C@@H](C(=O)NC3CCCCC3)CC[C@H]2C)n1	-0.2 °C
COc1ccc(-c2coc3cc(O)ccc3c2=O)cc1 [Formononetin]	0.363 °C
CN1CCN(S(=O)(=O)c2ccc(-c3cnc(N)c(C(=O)Nc4cccnc4)n3)cc2)CC1	0.0296 °C
Nc1ccc2ncnc(NCCc3ccc(Oc4ccccc4)cc3)c2c1	-0.0957 °C
Oc1c(Br)cc(Br)c2cccnc12 [Broxyquinoline]	0.0141 °C
COc1cc2c(cc1OC)[C@@H](Cc1ccc(O)c(Oc3cc4c(cc3OC)CCN(C)[C@@H]4Cc3ccc(O)cc3)c1)N(C)CC2.[O-][Cl+3]([O-])([O-])O [Liensinine Perchlorate]	-0.168 °C
O=C(OCCN1CCOCC1)C1(c2ccccc2)CCCCC1 [PRE-084 hydrochloride]	-0.0283 °C
Cc1ccc2c(c1)C(=O)C1(O)CCN(c3ccccc3)C1=N2 (single isomer, unassigned; (-)) [(-)-Blebbistatin]	-0.0107 °C
CC(CN1CC(=O)N(CN2CCOCC2)C(=O)C1)N1CC(=O)N(CN2CCOCC2)C(=O)C1 (stereo unspecified) [Probimane]	0.314 °C
CNC(=O)c1cc(Oc2ccc(NC(=O)c3cccc(C(F)(F)F)c3)cc2)ccn1	0.0547 °C
CS(=O)(=O)c1ccc(C(=O)Nc2ccc(Cl)c(-c3ccccn3)c2)c(Cl)c1 [Vismodegib (GDC-0449)]	0.0369 °C
O=C1C(c2c(O)[nH]c3ccccc23)=Nc2ccccc21 [Indirubin]	-0.043 °C
COc1ccc(C(=O)CCC(=O)O)c2ccccc12 [Menbutone]	0.472 °C
CC1(C)CCC(c2ccc(Cl)cc2)=C(CN2CCN(c3ccc(C(=O)NS(=O)(=O)c4ccc(N[C@H](CCN5CCOCC5)CSc5ccccc5)c(S(=O)(=O)C(F)(F)F)c4)cc3)CC2)C1 [ABT-263 (Navitoclax)]	0.711 °C
O=C(COc1ccc(C(=O)c2ccccc2)cc1)NC1CCN(Cc2ccccc2)CC1 [AdipoRon]	-0.26 °C
CNC[C@H](O)[C@@H](O)[C@H](O)[C@H](O)CO.CNC[C@H](O)[C@@H](O)[C@H](O)[C@H](O)CO.O=C([O-])CN(CCN(CC(=O)[O-])CC(=O)O)CCN(CC(=O)[O-])CC(=O)O.[Gd+3] [Gadopentetate dimeglumine]	-0.0725 °C
Clc1ccccc1C(c1ccccc1)(c1ccccc1)n1cccn1	-0.0902 °C
O=C(N[C@H]1CN2CCC1CC2)c1cc2cccc(Cl)c2s1 [EVP-6124 hydrochloride]	-0.159 °C
O=C(O[C@H]1[C@H](OC(=O)c2cccnc2)[C@@H](OC(=O)c2cccnc2)[C@H](OC(=O)c2cccnc2)[C@@H](OC(=O)c2cccnc2)[C@H]1OC(=O)c1cccnc1)c1cccnc1 [Inositol nicotinate]	0.0921 °C
O=C(O[C@H]1C[N+]2(CCCOc3ccccc3)CCC1CC2)C(O)(c1cccs1)c1cccs1 [Aclidinium Bromide]	-0.0272 °C
COc1cc(O)c2c(=O)cc(-c3ccc(OC)c(-c4c(O)cc(O)c5c(=O)cc(-c6ccc(O)cc6)oc45)c3)oc2c1 [Ginkgetin]	0.17 °C
O=C(NOCC1CC1)c1ccc(F)c(F)c1Nc1ccc(I)cc1Cl	0.153 °C
Nc1nc(F)nc2c1ncn2[C@@H]1O[C@H](COP(=O)(O)O)[C@@H](O)[C@@H]1O [Fludarabine Phosphate]	-0.0153 °C
